Experimental data: PubChem BioAssay AID602196 (INSERM, 2012)

Purpose: 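Genes whose knock-down alters cisplatin killing of lung cancer cells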
System: human A549 lung cancer cells
Reagent: siRNA pair against human genes
Duration: 48 h transfection before cisplatin; time from cisplatin to read-out not stated
Challenge: cisplatin at a dose killing half of control-siRNA cells; exact dose and duration not given
Read-out: 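Cisplatin cell death as a shift from the 50% death seen with control siRNA; siRNAs toxic or growth-blocking alone scored 0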
Scale: two-siRNA summed score (-2 to +2): higher = both siRNAs protect from cisplatin killing; -2 means both sensitise
Hit rule: 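Each siRNA scores 0 if harmful alone by LDH or WST-1, otherwise +1 if it reduces and -1 if it increases cisplatin killing; a gene is active when both siRNAs agree (sum +2 or -2)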
Calls: active = both siRNAs shift cisplatin killing the same way; inactive = no consistent shift, or siRNA harmful alone
In all, the deposit lists about 23,000 reagents; this is a part drawn at random. In the full data, 455 (2%) were called active. 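Active includes both protection and sensitisation; some change values fall well beyond the stated -50 to +50 range.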 Not all columns of the deposit are shown. Reagent sequences are not shown. The record does not give: the amount of reagent.

With knock-down of TEX29 (GeneID 121793) the results were two-siRNA summed score (-2 to +2) = 0; inactive.
EMC10 (GeneID 284361) showed two-siRNA summed score (-2 to +2) = 0; inactive.
With knock-down of KRT13 (GeneID 3860), the screen gave two-siRNA summed score (-2 to +2) = 1; inactive.
With knock-down of SDC3 (GeneID 9672), the screen gave two-siRNA summed score (-2 to +2) = 0; inactive.
With knock-down of ADO (GeneID 84890) the results were two-siRNA summed score (-2 to +2) = -1; inactive.
Silencing of ECSIT (GeneID 51295) came out at: two-siRNA summed score (-2 to +2) = 0; inactive.
Knock-down of LOC440516 resulted in: two-siRNA summed score (-2 to +2) = 0; inactive.
DIO2 (GeneID 1734) gave two-siRNA summed score (-2 to +2) = 0; inactive.
Against MFAP3 (GeneID 4238) the deposit lists two-siRNA summed score (-2 to +2) = 1; inactive.
With knock-down of SYT1 (GeneID 6857), the screen gave two-siRNA summed score (-2 to +2) = -1; inactive.
Against DEFA6 (GeneID 1671) the deposit lists two-siRNA summed score (-2 to +2) = 0; inactive.
LSS (GeneID 4047) scored two-siRNA summed score (-2 to +2) = 0; inactive.
With knock-down of LOC440919 the results were two-siRNA summed score (-2 to +2) = 1; inactive.
Depletion of ATL3 (GeneID 25923) gave: two-siRNA summed score (-2 to +2) = 0; inactive.
MIEN1 (GeneID 84299) showed two-siRNA summed score (-2 to +2) = 0; inactive.
For PROSER1 (GeneID 80209), the values are two-siRNA summed score (-2 to +2) = 0; inactive.

Targets listed so far whose target name starts with S or s (2):
SDC3 (GeneID 9672) — two-siRNA summed score (-2 to +2) = 0; call = inactive
SYT1 (GeneID 6857) — two-siRNA summed score (-2 to +2) = -1; call = inactive

Additional reagents follow:
For SLC38A12 (GeneID 54868) the deposit lists two-siRNA summed score (-2 to +2) = 0; inactive.
Depletion of GLIS3 (GeneID 169792) gave: two-siRNA summed score (-2 to +2) = 0; inactive.
For TXN (GeneID 7295), the entry reads two-siRNA summed score (-2 to +2) = 0; inactive.
Silencing of NPHS2 (GeneID 7827) came out at: two-siRNA summed score (-2 to +2) = 1; inactive.
FLJ44674 (retired record) (GeneID 400535) showed two-siRNA summed score (-2 to +2) = 1; inactive.
METTL3 (GeneID 56339) gave two-siRNA summed score (-2 to +2) = 0; inactive.
For CACNA1B (GeneID 774) the deposit lists two-siRNA summed score (-2 to +2) = 0; inactive.
Against UBE2T (GeneID 29089) the deposit lists two-siRNA summed score (-2 to +2) = -2; active.
SHCBP1 (GeneID 79801) scored two-siRNA summed score (-2 to +2) = 0; inactive.
For SOX3 (GeneID 6658) the deposit lists two-siRNA summed score (-2 to +2) = 0; inactive.
For LOC401280, the entry reads two-siRNA summed score (-2 to +2) = 0; inactive.
FBXO24 (GeneID 26261) showed two-siRNA summed score (-2 to +2) = -1; inactive.
Depletion of LOC440003 gave: two-siRNA summed score (-2 to +2) = 0; inactive.
With knock-down of DNAJC17 (GeneID 55192), the screen gave two-siRNA summed score (-2 to +2) = 0; inactive.
For WFDC2 (GeneID 10406), the entry reads two-siRNA summed score (-2 to +2) = 0; inactive.
